Some of these results come from one statement about several compounds together.
What follows are molecules tested against BACE (Homo sapiens, UniProt P56817) (assay: In Vitro Enzymatic BACE FRET (Fluorescence Resonance Energy Transfer) Assay). Conditions: Enzyme 0.2 nM pre-incubated one hour with inhibitor, FRET substrate 50 nM, acetate pH 4.2.
Type: biochemical

Amino acid sequences for entries named in this document (tags omitted). Residues count along the entry.
UniProt P56817, 46-501, species assumed: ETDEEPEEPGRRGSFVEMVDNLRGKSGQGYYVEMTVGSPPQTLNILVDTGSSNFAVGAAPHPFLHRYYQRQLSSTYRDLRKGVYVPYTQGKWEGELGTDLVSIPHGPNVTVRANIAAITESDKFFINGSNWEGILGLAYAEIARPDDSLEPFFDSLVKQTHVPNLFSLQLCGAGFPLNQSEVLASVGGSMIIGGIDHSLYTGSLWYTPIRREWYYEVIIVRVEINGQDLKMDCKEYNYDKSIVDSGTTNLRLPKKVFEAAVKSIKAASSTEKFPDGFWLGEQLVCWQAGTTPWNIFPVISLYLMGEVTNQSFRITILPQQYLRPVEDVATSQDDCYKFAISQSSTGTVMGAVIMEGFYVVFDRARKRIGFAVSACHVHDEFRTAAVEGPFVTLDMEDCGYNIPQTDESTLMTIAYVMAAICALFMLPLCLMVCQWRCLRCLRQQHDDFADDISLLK

IC50, ≤ 5 µM:
O=C(N[C@@H](Cc1ccccc1)[C@H](O)CN[C@H]1CC2(CCCC2)Oc2ccc(Br)cc21)c1cc(N2CCCC2=O)c(=O)n(C2CCCC2)c1 [Example 121]
O=C(N[C@@H](Cc1ccccc1)[C@H](O)CN[C@H]1CC2(CCCC2)Oc2ccc(Br)cc21)c1ccc(=O)n(C2CCCC2)c1 [Example 122]
CC(C)Cn1cc(C(=O)N[C@@H](Cc2ccccc2)[C@H](O)CN[C@H]2CC3(CCCC3)Oc3ccc(Br)cc32)ccc1=O [Example 123]
CC(C)(C)Cc1ccc2c(c1)[C@@H](NC[C@@H](O)[C@H](Cc1ccccc1)NC(=O)c1cc(N3CCCC3=O)c(=O)n(C3CCCC3)c1)CC1(CCCC1)O2 [Example 124]
CC(C)(C)Cc1ccc2c(c1)[C@@H](NC[C@@H](O)[C@H](Cc1ccccc1)NC(=O)c1ccc(=O)n(C3CCCC3)c1)CC1(CCCC1)O2 [Example 125]
CCc1ccc2c(c1)[C@@H](NC[C@@H](O)[C@H](Cc1ccccc1)NC(=O)c1cc(-c3ccccc3F)c(=O)n3c1CCC3)CC1(CCC1)O2 [Example 126, N-((2S,3R)-4-((S)-6-Ethyl-2,2-spirocyclobutylchroman-4-ylamino)3-hydroxy-1-phenylbutan-2-yl)-6-(2-fluorophenyl)-5-oxo-1,2,3,5-tetrahydroindolizine-8-carboxamide]
O=C(N[C@@H](Cc1ccccc1)[C@H](O)CN[C@H]1CC2(CCC2)Oc2ccc(F)cc21)c1cc(N2CCCC2=O)c(=O)n(C2CCCC2)c1 [Example 127]
CCc1ccc2c(c1)[C@@H](NC[C@@H](O)[C@H](Cc1ccccc1)NC(=O)c1cc(N3CCCC3=O)c(=O)n(C3CCCC3)c1)CC1(CCCCC1)O2 [Example 128, 1-cyclopentyl-N-((2S,3R)-4-((8)-6-ethyl-2,2-spirocyclohexyl-chroman-4-ylamino)-3-hydroxy-1-phenylbutan-2-yl)-6-oxo-5-(2-oxopyrrolidin-1-yl)-1,6-dihydropyridine-3-carboxamide]
CCc1ccc2c(c1)[C@@H](NC[C@@H](O)[C@H](Cc1ccccc1)NC(=O)c1ccc(=O)n(C3CCCCC3)c1)CC1(CCCCC1)O2 [Example 129, 1-cyclohexyl-N-((2S,3R)-4-((S)-6-ethyl-2,2-spirocyclohexyl-chroman-4-ylamino)-3-hydroxy-1-phenylbutan-2-yl)-6-oxo-1,6-dihydropyridine-3-carboxamide]
CCc1ccc2c(c1)[C@@H](NC[C@@H](O)[C@H](Cc1ccccc1)NC(=O)c1cc(N3CCCC3=O)c(=O)n(C3CCCC3)c1)CC1(CCCCCC1)O2 [Example 130, 1-cyclopentyl-N-((2S,3R)-4-((S)-6-ethyl-2,2-spirocycloheptyl-chroman-4-ylamino)-3-hydroxy-1-phenylbutan-2-yl)-6-oxo-5-(2-oxopyrrolidin-1-yl)-1,6-dihydropyridine-3-carboxamide]
Cc1ccc2c(c1)[C@@H](NC[C@@H](O)[C@H](Cc1ccccc1)NC(=O)c1cc(N3CCCC3=O)c(=O)n(C3CCCC3)c1)CC1(CCCC1)O2 [Example 131, 1-cyclopentyl-N-((2S,3R)-4-((S)-2,2-spirocyclopentyl-6-methylchroman-4-ylamino)-3-hydroxy-1-phenylbutan-2-yl)-6-oxo-5-(2-oxopyrrolidin-1-yl)-1,6-dihydropyridine-3-carboxamide]
Cc1ccc2c(c1)[C@@H](NC[C@@H](O)[C@H](Cc1ccccc1)NC(=O)c1ccc(=O)n(C3CCCC3)c1)CC1(CCCC1)O2 [Example 132, 1-cyclopentyl-N-((2S,3R)-4-((S)-2,2-spirocyclopentyl-6-methylchroman-4-ylamino)-3-hydroxy-1-phenylbutan-2-yl)-6-oxo-1,6-dihydropyridine-3-carboxamide]
Cc1ccc2c(c1)[C@@H](NC[C@@H](O)[C@H](Cc1ccccc1)NC(=O)c1ccc(=O)n(CC(C)(C)C)c1)CC1(CCCC1)O2 [Example 133, N-((2S,3R)-4-((S)-2,2-spirocyclopentyl-6-methylchroman-4-ylamino)-3-hydroxy-1-phenylbutan-2-yl)-1-neopentyl-6-oxo-1,6-dihydropyridine-3-carboxamide]
O=C(N[C@@H](Cc1ccccc1)[C@H](O)CN[C@H]1CC2(CCCC2)Oc2ccc(OC(F)(F)F)cc21)c1cc(N2CCCC2=O)c(=O)n(C2CCCC2)c1 [Example 134, 1-cyclopentyl-N-((2S,3R)-4-((S)-2,2-spirocyclopentyl-6-(trifluoromethoxy)chroman-4-ylamino)-3-hydroxy-1-phenylbutan-2-yl)-6-oxo-5-(2-oxopyrrolidin-1-yl)-1,6-dihydropyridine-3-carboxamide]
O=C(N[C@@H](Cc1ccccc1)[C@H](O)CN[C@H]1CC2(CCCC2)Oc2ccc(OC(F)(F)F)cc21)c1ccc(=O)n(C2CCCC2)c1 [Example 135, 1-cyclopentyl-N-((2S,3R)-4-((S)-2,2-spirocyclopentyl-6-(tri-fluoromethoxy)chroman-4-ylamino)-3-hydroxy-1-phenylbutan-2-yl)-6-oxo-1,6-dihydropyridine-3-carb oxamide]
CC(C)(C)Cn1cc(C(=O)N[C@@H](Cc2ccccc2)[C@H](O)CN[C@H]2CC3(CCCC3)Oc3ccc(OC(F)(F)F)cc32)ccc1=O [Example 136, N-((2S,3R)-4-((S)-2,2-spirocyclopentyl-6-(trifluoro-methoxy)chroman-4-ylamino)-3-hydroxy-1-phenylbutan-2-yl)-1-neopentyl-6-oxo-1,6-dihydropyridine-3-carboxamide]
CC(C)c1ccc2c(c1)[C@@H](NC[C@@H](O)[C@H](Cc1ccccc1)NC(=O)c1cc(N3CCCC3=O)c(=O)n(C3CCCC3)c1)CC1(CCCC1)O2 [Example 137, 1-cyclopentyl-N-((2S,3R)-4-((S)-2,2-spirocyclopentyl-6-iso-propylchroman-4-ylamino)-3-hydroxy-1-phenylbutan-2-yl)-6-oxo-5-(2-oxopyrrolidin-1-yl)-1,6-dihydropyridine-3-carboxamide]
CC(C)c1ccc2c(c1)[C@@H](NC[C@@H](O)[C@H](Cc1ccccc1)NC(=O)c1ccc(=O)n(C3CCCC3)c1)CC1(CCCC1)O2 [Example 138, 1-cyclopentyl-N-((2S,3R)-4-((S)-2,2-spirocyclopentyl-6-iso-propylchroman-4-ylamino)-3-hydroxy-1-phenylbutan-2-yl)-6-oxo-1,6-dihydropyridine-3-carb oxamide]
CCc1ccc2c(c1)[C@@H](NC[C@@H](O)[C@H](Cc1ccccc1)NC(=O)c1cc(N3CCCC3=O)c(=O)n(C3CCCC3)c1)CC1(CCCC1C)O2 (stereo partly drawn) [Example 140, 1-cyclopentyl-N-((2S,3R)-4-((S)-6-ethyl-2,2-(-methyl)-spirocyclopentylchroman-4-ylamino)-3-hydroxy-1-phenylbutan-2-yl)-6-oxo-5-(2-oxopyrrolidin-1-yl)-1,6-dihydropyridine-3-carboxamide]
CCc1ccc2c(c1)[C@@H](NC[C@@H](O)[C@H](Cc1ccccc1)NC(=O)c1nn(-c3ccccc3)c(=O)cc1Cl)CC1(CCCC1)O2 [Example 142, 4-chloro-N-((2S,3R)-4-((S)-6-ethyl-2,2-spirocyclopentylchroman-4-ylamino)-3-hydroxy-1-phenylbutan-2-yl)-6-oxo-1-phenyl-1,6-dihydropyridazine-3-carboxamide]
CCc1ccc2c(c1)[C@@H](NC[C@@H](O)[C@H](Cc1ccccc1)NC(=O)c1ccc(=O)n(-c3ccccc3)n1)CC1(CCCC1)O2 [Example 143, N-((2S,3R)-4-((S)-6-ethyl-2,2-spirocyclopentylchroman-4-ylamino)-3-hydroxy-1-phenylbutan-2-yl)-6-oxo-1-phenyl-1,6-dihydropyridazine-3-carboxamide]
CC(C)c1ccc2c(c1)[C@@H](NC[C@@H](O)[C@H](Cc1ccccc1)NC(=O)c1nn(-c3ccccc3)c(=O)cc1Cl)CC1(CCCC1)O2 [Example 144, 4-chloro-N-((2S,3R)-3-hydroxy-4-((S)-6-isopropyl-2,2-spirocyclopentylchroman-4-ylamino)-1-phenylbutan-2-yl)-6-oxo-1-phenyl-1,6-dihydropyridazine-3-carb oxamide]
CC(C)c1ccc2c(c1)[C@@H](NC[C@@H](O)[C@H](Cc1ccccc1)NC(=O)c1ccc(=O)n(-c3ccccc3)n1)CC1(CCCC1)O2 [Example 145, N-((2S,3R)-4-((S)-2,2-spirocyclopentylchroman-6-isopropylchroman-4-ylamino)-3-hydroxy-1-phenylbutan-2-yl)-6-oxo-1-phenyl-1,6-dihydropyridazine-3-carboxamide]
CCc1ccc2c(c1)[C@@H](NC[C@@H](O)[C@H](Cc1ccccc1)NC(=O)c1ccc(=O)n(-c3ccccc3)n1)CC1(CCC1)O2 [Example 146, N-((2S,3R)-4-((S)-6-ethyl-2,2-spirocyclobutylchroman-4-ylamino)-3-hydroxy-1-phenylbutan-2-yl)-6-oxo-1-phenyl-1,6-dihydropyridazine-3-carboxamide]
CCc1ccc2c(c1)[C@@H](NC[C@@H](O)[C@H](Cc1ccccc1)NC(=O)c1nn(-c3ccccc3)c(=O)cc1Cl)CC1(CCC1)O2 [Example 147, 4-chloro-N-((2S,3R)-4-((S)-6-ethyl-2,2-spirocyclobutylchroman-4-ylamino)-3-hydroxy-1-phenylbutan-2-yl)-6-oxo-1-phenyl-1,6-dihydropyridazine-3-carboxamide]
O=C(N[C@@H](Cc1ccccc1)[C@H](O)CN[C@H]1CC2(CCCC2)Oc2ccccc21)c1cc(N2CCCC2=O)c(=O)n(C2CCCC2)c1 [Example 148, 1-cyclopentyl-N-((2S,3R)-4-((S)-2,2-spirocyclopentylchroman-4-ylamino)-3-hydroxy-1-phenylbutan-2-yl)-6-oxo-5-(2-oxopyrrolidin-1-yl)-1,6-dihydropyridine-3-carboxamide]
O=C(N[C@@H](Cc1ccccc1)[C@H](O)CN[C@H]1CC2(CCCC2)Oc2ccccc21)c1ccc(=O)n(C2CCCC2)c1 [Example 149, 1-cyclopentyl-N-((2S,3R)-4-((S)-2,2-spirocyclopentylchroman-4-ylamino)-3-hydroxy-1-phenylbutan-2-yl)-6-oxo-1,6-dihydropyridine-3-carboxamide]

— patent publication US8163766B2, “Beta-secretase modulators and methods of use” (Amgen Inc., priority 2005, dated 2012)
